Laboratory results from patent US20230398110A1, “COMPOSITIONS AND METHODS FOR TREATING NON-ALCOHOLIC STEATOHEPATITIS” (ASCENTAGE PHARMA (SUZHOU) CO., LTD., priority 2020, published 2023).
For at least one compound, name, drawing or mass did not settle the structure.

Test system: C57BL/6J mice induced with high-fat diet (HFD) and CCl4
Assay: HFD/CCl4 NASH mouse model, liver histology (NAS score, fibrosis)
Format: in vivo
Conditions: Compound 1 50 mg/kg qd p.o., OCA 30 mg/kg qd p.o., alone or combined, 21 days
Procedure: Male C57BL/6J mice with an age of 18 weeks were purchased from GemPharmatech Co., Ltd (Nanjing, Jiangsu). Mice were first fed with high-fat diet (HFD) for 11 weeks to induced obesity. Carbon tetrachloride (25% CCl4, 0.5 μl/g) was then intraperitoneally injected twice weekly for 4 consecutive weeks, to induce liver damages, leading to inflammation, cell death and fibrosis. The day of the first carbon tetrachloride injection was dated as day 0. At day 7, the animals were randomized and treatment started. The test article administration and the animal numbers in each group are shown in the following experimental design Table 3. […]
Liver tissue from animals in each group were analyzed for NAS scores.
Specifically, the scores assessed were: • 1) the unweighted sum of the steatosis (0-3); • 2) lobular inflammation (0-3); • 3) hepatocellular ballooning (0-2); and • 4) liver fibrosis score (0-4), after Sirius red staining.
Liver tissues of each group of animals were taken, and NAS scores were analyzed by hematoxylin-eosin (HE) staining, and liver fibrosis was analyzed by Sirius red staining.
After staining, the NAS scores of the prepared samples were evaluated. In hematoxylin-eosin stained sections, NAS scores were evaluated according to the degree of steatosis, inflammatory cell infiltration and […].
After staining, fibrosis of the liver was additionally evaluated. […]

## CC[C@H]1[C@@H](O)[C@@H]2[C@H](CC[C@]3(C)[C@@H]([C@H](C)CCC(=O)O)CC[C@@H]23)[C@@]2(C)CC[C@@H](O)C[C@@H]12 [OCA, obeticholic acid, reference compound]
  steatosis, lobular inflammation and hepatocellular ballooning (HE-staining of liver tissue, FIG. 1A): alleviated
